Source: PubChem BioAssay AID1259254 (NCATS, 2017)
The deposit covers about 59,000 reagents; this is a part drawn at random. About 1,550 of them (2.6%) were called active. 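G2 share is only a proxy for re-replication; each gene was hit by three separate siRNAs, and active genes were retested.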 Entries without a mark were called inactive. Reagents against one gene are numbered here. Further read-outs or replicates are left out here. Not given: the amount of reagent.

Aim: 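Gene knock-downs that lead to re-replication, shown by excess G2 DNA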 (primary screen)
Cell system: human HCT116 colorectal cancer cells
Knock-down reagent: single siRNA against human genes
Timing: 3 days
Detection: 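Imaged Hoechst DNA stain sorts each cell into a cycle phase by DNA amount; per plate, G2 fraction set to 0% for non-targeting and 100% for GMNN siRNA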
Direction: G2 robust z-score and G2 cells, % of GMNN control: higher = more G2 cells, more excess DNA replication
Rule for the call: 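Active siRNAs have a G2 robust z of 5 or more median absolute deviations over the median, which in these data means about 38% or higher of GMNN control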

The opening 2 records, ahead of the listing:
DHX38 (DEAH-box helicase 38) #1
- G2 robust z-score: 0.166
- G2 cells, % of GMNN control: 4.14

DHX38 (DEAH-box helicase 38) #2
- G2 robust z-score: -0.907
- G2 cells, % of GMNN control: -3.42

Main list, from the first entry:
DHX38 (DEAH-box helicase 38) #1
- G2 robust z-score: 0.166
- G2 cells, % of GMNN control: 4.14

DHX38 (DEAH-box helicase 38) #2
- G2 robust z-score: -0.907
- G2 cells, % of GMNN control: -3.42

DHX38 (DEAH-box helicase 38) #3
- G2 robust z-score: 0.0337
- G2 cells, % of GMNN control: 3.2

SERP1 (stress associated endoplasmic reticulum protein 1) #1
- G2 robust z-score: -0.441
- G2 cells, % of GMNN control: -0.136

SERP1 (stress associated endoplasmic reticulum protein 1) #2
- G2 robust z-score: 4.33
- G2 cells, % of GMNN control: 33.4

SERP1 (stress associated endoplasmic reticulum protein 1) #3
- G2 robust z-score: -0.305
- G2 cells, % of GMNN control: 0.822

KCNC3 (potassium voltage-gated channel subfamily C member 3) #1
- G2 robust z-score: -0.717
- G2 cells, % of GMNN control: -2.08

KCNC3 (potassium voltage-gated channel subfamily C member 3) #2
- G2 robust z-score: -0.671
- G2 cells, % of GMNN control: -1.75

KCNC3 (potassium voltage-gated channel subfamily C member 3) #3
- G2 robust z-score: -1.02
- G2 cells, % of GMNN control: -4.24

STK39 (serine/threonine kinase 39) #1
- G2 robust z-score: -0.287
- G2 cells, % of GMNN control: 0.945

STK39 (serine/threonine kinase 39) #2
- G2 robust z-score: -0.193
- G2 cells, % of GMNN control: 1.61

STK39 (serine/threonine kinase 39) #3
- G2 robust z-score: 3.09
- G2 cells, % of GMNN control: 24.7

MDFI (MyoD family inhibitor) #1
- G2 robust z-score: 0.545
- G2 cells, % of GMNN control: 6.8

MDFI (MyoD family inhibitor) #2
- G2 robust z-score: -0.706
- G2 cells, % of GMNN control: -2

MDFI (MyoD family inhibitor) #3
- G2 robust z-score: 1.64
- G2 cells, % of GMNN control: 14.5

MMP15 (matrix metallopeptidase 15) #1
- G2 robust z-score: -0.571
- G2 cells, % of GMNN control: -1.05

MMP15 (matrix metallopeptidase 15) #2
- G2 robust z-score: -1.58
- G2 cells, % of GMNN control: -8.18

MMP15 (matrix metallopeptidase 15) #3
- G2 robust z-score: -0.0666
- G2 cells, % of GMNN control: 2.5

NFE4 (nuclear factor, erythroid 4) #1
- G2 robust z-score: -0.339
- G2 cells, % of GMNN control: 0.585

NFE4 (nuclear factor, erythroid 4) #2
- G2 robust z-score: -0.706
- G2 cells, % of GMNN control: -2

NFE4 (nuclear factor, erythroid 4) #3
- G2 robust z-score: 1.33
- G2 cells, % of GMNN control: 12.3

LIF (LIF interleukin 6 family cytokine) #1
- G2 robust z-score: 2.82
- G2 cells, % of GMNN control: 22.8

LIF (LIF interleukin 6 family cytokine) #2
- G2 robust z-score: 7.2 (active)
- G2 cells, % of GMNN control: 53.6

LIF (LIF interleukin 6 family cytokine) #3
- G2 robust z-score: -0.568
- G2 cells, % of GMNN control: -1.03
